Measurements reported in PubChem BioAssay AID1117269 (University of Michigan, 2014).
Here is a random part of 714 reagents. Of all reagents, 49 (6.9%) are marked active. 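Active means a hit in at least one line; per-line hit columns show which; some siRNA pools appear more than once.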 Some reagents were tested in more than one well and are listed for each. Not stated in the record: the amount of reagent.

- Test: 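Kinases whose silencing alters a TGF-beta responsive luciferase reporter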 (primary screen)
- Cells: human A549 lung cancer and 1833 breast cancer (MDA-MB-231-derived) cell lines carrying a stable BTR luciferase reporter
- Knock-down reagent: siRNA pool against human genes
- Time to read-out: 72 h after transfection, then 1 h TGF-beta before the read
- Treatment: TGF-beta 10 ng/mL added one hour before luciferin and read-out
- Measurement: 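Live-cell BTR luciferase signal at 72 h after transfection and 1 h of TGF-beta at 10 ng/mL, fold versus scrambled siRNA, triplicate mean for each line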
- Reading the numbers: fold over scrambled siRNA, A549 and fold over scrambled siRNA, 1833: higher = more reporter light, weaker TGF-beta receptor signalling
- Call rule: 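Active if a hit in A549 or 1833; a line's hit exceeds an upper quartile-based cutoff on mean log fold values, applied per plate and across the whole screen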
- Calls: active = hit in at least one line; inactive = hit in neither line

gene | fold over scrambled siRNA, A549 | fold over scrambled siRNA, 1833 | hit in A549 | hit in 1833 | outcome
PIP5K1C (phosphatidylinositol-4-phosphate 5-kinase type 1 gamma) | 1.71 | 2.94 | not a hit in A549 | not a hit in 1833 | inactive
PRKAR2B | 2.33 | 1.71 | not a hit in A549 | not a hit in 1833 | inactive
MAP3K14 (mitogen-activated protein kinase kinase kinase 14) | 3.62 | 7 | not a hit in A549 | not a hit in 1833 | inactive
DAPK2 (death associated protein kinase 2) | 2.75 | 3.37 | not a hit in A549 | not a hit in 1833 | inactive
GUCY2EP (guanylate cyclase 2E, pseudogene) | 3.59 | 1.3 | not a hit in A549 | not a hit in 1833 | inactive
TSSK1B (testis specific serine kinase 1B) | 3.69 | 1.1 | not a hit in A549 | not a hit in 1833 | inactive
TSSK1B (testis specific serine kinase 1B) | 3.08 | 1.88 | not a hit in A549 | not a hit in 1833 | inactive
SPHK2 (sphingosine kinase 2) | 0.857 | 2.34 | not a hit in A549 | not a hit in 1833 | inactive
NEK3 (NIMA related kinase 3) | 1.1 | 3.48 | not a hit in A549 | not a hit in 1833 | inactive
PAK1 (p21 (RAC1) activated kinase 1) | 0.648 | 1.6 | not a hit in A549 | not a hit in 1833 | inactive
MARK2 (microtubule affinity regulating kinase 2) | 3.57 | 6.64 | not a hit in A549 | not a hit in 1833 | inactive
DGKD (diacylglycerol kinase delta) | 2 | 2.76 | not a hit in A549 | not a hit in 1833 | inactive
MAP3K1 (mitogen-activated protein kinase kinase kinase 1) | 1.98 | 2 | not a hit in A549 | not a hit in 1833 | inactive
TSKS (testis specific serine kinase substrate) | 3.71 | 19.2 | not a hit in A549 | hit in 1833 | –
CDKL3 (cyclin dependent kinase like 3) | 3.76 | 6.27 | not a hit in A549 | not a hit in 1833 | inactive
CAMK1 (calcium/calmodulin dependent protein kinase I) | 1.51 | 3.8 | not a hit in A549 | not a hit in 1833 | inactive
SIK3 (SIK family kinase 3) | 2.45 | 1.29 | not a hit in A549 | not a hit in 1833 | inactive
LYN (LYN proto-oncogene, Src family tyrosine kinase) | 2.48 | 3.07 | not a hit in A549 | not a hit in 1833 | inactive
PFKFB2 (6-phosphofructo-2-kinase/fructose-2,6-biphosphatase 2) | 5.66 | 5.52 | hit in A549 | not a hit in 1833 | active
TSSK2 (testis specific serine kinase 2) | 0.747 | 1.21 | not a hit in A549 | not a hit in 1833 | inactive
ALDH18A1 (aldehyde dehydrogenase 18 family member A1) | 1.05 | 1.6 | not a hit in A549 | not a hit in 1833 | inactive
PRKG1 (protein kinase cGMP-dependent 1) | 2.23 | 3.87 | not a hit in A549 | not a hit in 1833 | inactive
CDKN1C (cyclin dependent kinase inhibitor 1C) | 2 | 4.25 | not a hit in A549 | not a hit in 1833 | inactive
GK (glycerol kinase) | 1.49 | 5.73 | not a hit in A549 | not a hit in 1833 | inactive

Sorted by “fold over scrambled siRNA, A549” (low to high): some entries from above.
gene | fold over scrambled siRNA, A549 | fold over scrambled siRNA, 1833 | hit in A549 | hit in 1833 | outcome
CAMK1 (calcium/calmodulin dependent protein kinase I) | 1.51 | 3.8 | not a hit in A549 | not a hit in 1833 | inactive
TSKS (testis specific serine kinase substrate) | 3.71 | 19.2 | not a hit in A549 | hit in 1833 | –
CDKL3 (cyclin dependent kinase like 3) | 3.76 | 6.27 | not a hit in A549 | not a hit in 1833 | inactive

More results:
gene | fold over scrambled siRNA, A549 | fold over scrambled siRNA, 1833 | hit in A549 | hit in 1833 | outcome
TRIO (trio Rho guanine nucleotide exchange factor) | 1.38 | 2.6 | not a hit in A549 | not a hit in 1833 | inactive
DCLK3 (doublecortin like kinase 3) | 2.81 | 6.14 | not a hit in A549 | not a hit in 1833 | inactive
GRK2 (G protein-coupled receptor kinase 2) | 0.565 | 0.786 | not a hit in A549 | not a hit in 1833 | inactive
PKN1 (protein kinase N1) | 1.05 | 1.93 | not a hit in A549 | not a hit in 1833 | inactive
CDK2 (cyclin dependent kinase 2) | 1.33 | 3.52 | not a hit in A549 | not a hit in 1833 | inactive
CDK3 (cyclin dependent kinase 3) | 0.762 | 2.29 | not a hit in A549 | not a hit in 1833 | inactive
STK32C (serine/threonine kinase 32C) | 1.76 | 2.85 | not a hit in A549 | not a hit in 1833 | inactive
HIPK2 (homeodomain interacting protein kinase 2) | 2.34 | 9.04 | not a hit in A549 | not a hit in 1833 | inactive
BRSK2 (BR serine/threonine kinase 2) | 2.07 | 3.84 | not a hit in A549 | not a hit in 1833 | inactive
TNK2 (tyrosine kinase non receptor 2) | 2.02 | 1.05 | not a hit in A549 | not a hit in 1833 | inactive
PDXK (pyridoxal kinase) | 1.67 | 5.73 | not a hit in A549 | not a hit in 1833 | inactive
CDC42BPB (CDC42 binding protein kinase beta) | 4.96 | 2.76 | not a hit in A549 | not a hit in 1833 | inactive
GRK1 (G protein-coupled receptor kinase 1) | 4.9 | 45.2 | not a hit in A549 | hit in 1833 | –
CKMT1B (creatine kinase, mitochondrial 1B) | 1.13 | 1.4 | not a hit in A549 | not a hit in 1833 | inactive
CERK (ceramide kinase) | 1.89 | 7.47 | not a hit in A549 | not a hit in 1833 | inactive
PANK3 (pantothenate kinase 3) | 1.31 | 4.68 | not a hit in A549 | not a hit in 1833 | inactive
RIOK3 (RIO kinase 3) | 2.67 | 5.19 | not a hit in A549 | not a hit in 1833 | inactive
STK26 (serine/threonine kinase 26) | 2.1 | 3.24 | not a hit in A549 | not a hit in 1833 | inactive
IRAK4 (interleukin 1 receptor associated kinase 4) | 2.91 | 2.27 | not a hit in A549 | not a hit in 1833 | inactive
PFKL (phosphofructokinase, liver type) | 1.38 | 5.25 | not a hit in A549 | not a hit in 1833 | inactive
ETNK1 (ethanolamine kinase 1) | 1.37 | 1.2 | not a hit in A549 | not a hit in 1833 | inactive
ERN2 (endoplasmic reticulum to nucleus signaling 2) | 1.48 | 1.33 | not a hit in A549 | not a hit in 1833 | inactive
STRADA (STE20 related adaptor alpha) | 3.86 | 6.13 | not a hit in A549 | not a hit in 1833 | inactive
BCKDK (branched chain keto acid dehydrogenase kinase) | 1.6 | 3.67 | not a hit in A549 | not a hit in 1833 | inactive
PAK2 (p21 (RAC1) activated kinase 2) | 1.93 | 1.44 | not a hit in A549 | not a hit in 1833 | inactive
PRKG2 (protein kinase cGMP-dependent 2) | 3.68 | 1.43 | not a hit in A549 | not a hit in 1833 | inactive
PLK2 (polo like kinase 2) | 2.95 | 5.7 | not a hit in A549 | not a hit in 1833 | inactive
STRADB (STE20 related adaptor beta) | 3 | 9.23 | not a hit in A549 | not a hit in 1833 | inactive
MAP2K6 (mitogen-activated protein kinase kinase 6) | 3.05 | 5.52 | not a hit in A549 | not a hit in 1833 | inactive
CDKN2D (cyclin dependent kinase inhibitor 2D) | 0.635 | 1.43 | not a hit in A549 | not a hit in 1833 | inactive
PHKA2 (phosphorylase kinase regulatory subunit alpha 2) | 3.71 | 6.2 | not a hit in A549 | not a hit in 1833 | inactive
MAPK4 (mitogen-activated protein kinase 4) | 3.95 | 6.51 | not a hit in A549 | not a hit in 1833 | inactive
PIK3C2B | 2.82 | 1.85 | not a hit in A549 | not a hit in 1833 | inactive
